In article PMC10855381:
Results are given in words; binding and its absence hold for the method and conditions named. In cells and extracts the contact can be indirect. Some results given as binding are weak or reduced against the parent protein; the word gives no strength. Where a sequence is shown, tags or fusion partners need not be part of it.

The chains behind the UniProt entries cited, without tags or fusion partners. Residues count along the entry.
UniProt Q28178, residues 19-1170: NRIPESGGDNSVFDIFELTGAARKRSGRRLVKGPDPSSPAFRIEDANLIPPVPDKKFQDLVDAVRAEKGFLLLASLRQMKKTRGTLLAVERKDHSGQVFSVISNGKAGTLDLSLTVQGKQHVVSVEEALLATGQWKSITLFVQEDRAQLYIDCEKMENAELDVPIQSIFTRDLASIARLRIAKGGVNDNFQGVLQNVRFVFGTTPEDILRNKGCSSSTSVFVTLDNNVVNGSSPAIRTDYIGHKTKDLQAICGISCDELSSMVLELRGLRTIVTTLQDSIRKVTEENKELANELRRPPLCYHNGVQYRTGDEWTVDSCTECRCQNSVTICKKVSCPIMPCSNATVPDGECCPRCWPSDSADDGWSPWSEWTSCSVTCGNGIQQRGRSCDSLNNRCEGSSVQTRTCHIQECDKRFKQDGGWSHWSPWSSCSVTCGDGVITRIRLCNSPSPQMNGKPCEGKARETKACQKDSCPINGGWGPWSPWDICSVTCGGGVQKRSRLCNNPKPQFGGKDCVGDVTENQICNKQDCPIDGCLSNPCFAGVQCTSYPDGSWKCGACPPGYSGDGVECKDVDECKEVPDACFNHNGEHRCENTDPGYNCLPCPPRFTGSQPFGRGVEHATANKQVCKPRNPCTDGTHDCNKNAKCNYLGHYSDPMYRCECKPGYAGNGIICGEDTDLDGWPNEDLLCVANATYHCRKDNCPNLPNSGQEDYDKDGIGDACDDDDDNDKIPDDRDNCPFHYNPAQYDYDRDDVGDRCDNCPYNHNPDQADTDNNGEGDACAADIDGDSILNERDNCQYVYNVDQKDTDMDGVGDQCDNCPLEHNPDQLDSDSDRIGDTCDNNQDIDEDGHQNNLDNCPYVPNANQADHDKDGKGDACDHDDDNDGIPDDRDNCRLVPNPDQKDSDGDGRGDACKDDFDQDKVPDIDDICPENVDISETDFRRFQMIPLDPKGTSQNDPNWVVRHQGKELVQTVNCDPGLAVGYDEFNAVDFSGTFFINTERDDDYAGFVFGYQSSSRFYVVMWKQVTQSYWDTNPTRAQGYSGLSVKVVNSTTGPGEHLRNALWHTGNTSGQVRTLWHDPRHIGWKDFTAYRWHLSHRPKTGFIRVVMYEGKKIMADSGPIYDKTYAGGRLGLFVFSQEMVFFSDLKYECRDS

Target: T1, V5-tagged PP2A B55α (pcDNA3.1 V5-His PP2A Bα) (UniProt P63151)
T1 sequence: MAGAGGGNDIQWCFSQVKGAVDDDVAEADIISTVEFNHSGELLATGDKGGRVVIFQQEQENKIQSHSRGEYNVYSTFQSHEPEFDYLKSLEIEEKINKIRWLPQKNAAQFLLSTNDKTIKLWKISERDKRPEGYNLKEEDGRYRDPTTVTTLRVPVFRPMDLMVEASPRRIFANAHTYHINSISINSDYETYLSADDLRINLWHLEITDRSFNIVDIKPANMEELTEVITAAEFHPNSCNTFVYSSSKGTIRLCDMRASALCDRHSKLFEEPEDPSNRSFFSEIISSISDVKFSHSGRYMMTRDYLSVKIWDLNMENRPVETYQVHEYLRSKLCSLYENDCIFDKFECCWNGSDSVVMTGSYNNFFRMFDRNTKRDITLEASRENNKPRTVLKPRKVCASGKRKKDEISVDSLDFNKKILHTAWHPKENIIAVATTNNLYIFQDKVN
Test: co-IP; lysates of endothelial cells transfected with pcDNA3.1 V5-His PP2A Bα or B’γ incubated with anti-V5 agarose affinity gel; eluates blotted for V5-tag, TSP1, PP2A A and PP2A C

binding: binds
Substance: Thrombospondin-1 (TSP1), endogenous in bovine pulmonary artery endothelial cells (from UniProt Q28178 19-1170)
